From PubChem BioAssay AID256 (DTP/NCI, 2004)
The list shows only some results of the screen, not a fair sample: it gathers tests that were run many times, whatever their T/C, doses with no T/C, and many T/C values between a quarter and a half above the control. Further doses and runs are listed elsewhere. T/C: endpoint of the treated group in % of that of the vehicle group. Some doses have a count of surviving animals in place of a T/C: the source holds a T/C of zero for them, seemingly a mark for toxic or unscored doses. Some doses without a T/C left all or most animals alive at the check, yet need not have been tolerated: survival well below the control is almost never listed, so the zero probably covers shortened survival too. Survivors were counted at the toxicity check, usually on the fifth day, unless a day is given; later deaths do not show. Schedules are NCI's codes, read here as Q, the interval in days (D) or hours (H), X, the number of doses. Some doses were run more than once; the results are listed from low to high. Some structures stand for samples that the source files as different forms (salt, stereo form or complex); doses refer to the form tested. For survival time, this PubChem deposit counts one and a half times the control or more as active, and values a quarter to a half above the control carry no call in these data; other NCI protocols may use other cut-offs. Some T/C values are followed by the survivors on the day toxicity was checked, most often the fifth; without a count, all were alive then.

System: CD2F1 mice, L1210 leukemia ip, survival T/C
Test: NCI In Vivo Anticancer Drug Screen. Data for tumor model L1210 Leukemia (intraperitoneal) in CD2F1 (CDF1) mice
Settings: higher T/C = longer survival
Summary of the method: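 Antitumor effect is scored in animals hosting a serially transplanted tumor. Values compare compound-dosed animals against vehicle-only controls as a simple quotient.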

[1] = T/C endpoint: mean survival time, dose: 100.0 mg/kg/injection, schedule: Q04DX003 (ip), vehicle: saline with Tween-80
[2] = T/C endpoint: mean survival time, dose: 200.0 mg/kg/injection, schedule: Q04DX003 (ip), vehicle: saline with Tween-80
[3] = T/C endpoint: mean survival time, dose: 400.0 mg/kg/injection, schedule: Q04DX003 (ip), vehicle: saline with Tween-80
[4] = T/C endpoint: mean survival time, dose: 400.0 mg/kg/injection, schedule: Q01DX009 (ip), vehicle: saline with Tween-80
[5] = T/C endpoint: mean survival time, dose: 50.0 mg/kg/injection, schedule: Q01DX009 (ip), vehicle: saline with Tween-80
[6] = T/C endpoint: mean survival time, dose: 200.0 mg/kg/injection, schedule: Q01DX009 (ip), vehicle: saline with Tween-80
[7] = T/C endpoint: mean survival time, dose: 400.0 mg/kg/injection, schedule: Q01DX001 (ip), vehicle: saline
[8] = T/C endpoint: median survival time, dose: 100.0 mg/kg/injection, schedule: Q01DX005 (ip), vehicle: saline
[9] = T/C endpoint: mean survival time, dose: 200.0 mg/kg/injection, schedule: Q01DX009 (ip), vehicle: saline
[10] = T/C endpoint: mean survival time, dose: 400.0 mg/kg/injection, schedule: Q01DX009 (ip), vehicle: saline

For `O=C(CCOP(=O)(N1CC1)N1CC1)OCc1ccccc1`, the survivor count (T/C endpoint: mean survival time, dose: 62.5 mg/kg/injection, schedule: Q01DX001 (ip), vehicle: Klucel (hydroxypropylcellulose) (HPC)) was 2 of 6 and 3 of 6, the survivor count (T/C endpoint: mean survival time, dose: 125.0 mg/kg/injection, schedule: Q01DX001 (ip), vehicle: Klucel (hydroxypropylcellulose) (HPC)) was 0 of 6 and the survivor count (T/C endpoint: mean survival time, dose: 250.0 mg/kg/injection, schedule: Q01DX001 (ip), vehicle: Klucel (hydroxypropylcellulose) (HPC)) was 0 of 6. For the same compound, the survivor count (T/C endpoint: mean survival time, dose: 500.0 mg/kg/injection, schedule: Q01DX001 (ip), vehicle: Klucel (hydroxypropylcellulose) (HPC)) was 0 of 6 and the survivor count (T/C endpoint: mean survival time, dose: 1000.0 mg/kg/injection, schedule: Q01DX001 (ip), vehicle: Klucel (hydroxypropylcellulose) (HPC)) was 0 of 6.
`CC1(C)CCC(C#N)=C1N` was tested, and the survivor count [1] was 4 of 6, the survivor count [2] was 0 of 6 and the survivor count [3] was 0 of 6.
In the case of `Cc1cccc(NC(=O)/C=C/C(=O)O)c1`, the survivor count [4] is reported as 6 of 6.
For `O=C(NCCNC(=O)c1ccccc1)c1ccccc1`, the survivor count (T/C endpoint: median survival time, dose: 100.0 mg/kg/injection, schedule: Q04DX002 (ip), vehicle: saline with Tween-80) was 3 of 3, the survivor count (T/C endpoint: median survival time, dose: 200.0 mg/kg/injection, schedule: Q04DX002 (ip), vehicle: saline with Tween-80) was 3 of 3 and the survivor count (T/C endpoint: median survival time, dose: 400.0 mg/kg/injection, schedule: Q04DX002 (ip), vehicle: saline with Tween-80) was 3 of 3.
With `Nc1nc(N)c(-c2ccc(Cl)c(Cl)c2)c(CP(Cl)(Cl)(Cl)Br)n1` the T/C [5] was 136 % of control, the T/C (T/C endpoint: mean survival time, dose: 100.0 mg/kg/injection, schedule: Q01DX009 (ip), vehicle: saline with Tween-80) was 113, 119, 120, 125 % of control and the T/C [6] was 100, 120, 122, 127 % of control. For the same compound, the T/C [4] was 97 and 127 % of control [4 of 6 alive], the survivor count [4] was 0 of 3 and 1 of 3 and the survivor count [3] was 0 of 6.
In the case of `O=C(CCl)Cc1ccccc1`, the survivor count [7] is reported as 1 of 6.
In the case of `Clc1nc[nH]c1Cl`, the survivor count [2] is reported as 1 of 6 and the survivor count [3] is reported as 1 of 6.
For `ClCc1ccc(CCl)c(Cl)c1Cl`, the survivor count [2] was 5 of 6 and the survivor count [3] was 2 of 6.
In the case of `CC(NNC(=S)N(C)C1CCCCC1)c1cc2ccccc2cn1` (stereo not given), the survivor count (T/C endpoint: median survival time, dose: 100.0 mg/kg/injection, schedule: Q01DX005 (ip), vehicle: saline with Tween-80) is reported as 0 of 6, the T/C [8] is reported as 137 % of control and the survivor count [8] is reported as 4 of 6. For the same compound, the survivor count (T/C endpoint: median survival time, dose: 200.0 mg/kg/injection, schedule: Q01DX005 (ip), vehicle: saline with Tween-80) was 0 of 6, the survivor count (T/C endpoint: median survival time, dose: 200.0 mg/kg/injection, schedule: Q01DX005 (ip), vehicle: saline) was 0 of 6 and 2 of 6 and the survivor count (T/C endpoint: median survival time, dose: 400.0 mg/kg/injection, schedule: Q01DX005 (ip), vehicle: saline) was 0 of 6.
In the case of `CC(C)OC(=O)Nc1ccncc1`, the survivor count (T/C endpoint: mean survival time, dose: 50.0 mg/kg/injection, schedule: Q04DX002 (ip), vehicle: saline with Tween-80) is reported as 0 of 3, the survivor count (T/C endpoint: mean survival time, dose: 100.0 mg/kg/injection, schedule: Q04DX002 (ip), vehicle: saline with Tween-80) is reported as 0 of 3 and the survivor count (T/C endpoint: mean survival time, dose: 200.0 mg/kg/injection, schedule: Q04DX002 (ip), vehicle: saline with Tween-80) is reported as 0 of 3. For the same compound, the survivor count (T/C endpoint: mean survival time, dose: 400.0 mg/kg/injection, schedule: Q04DX002 (ip), vehicle: saline with Tween-80) was 0 of 3.
`CCC[CH2][Sn]1([CH2]CCC)[O]OC(c2ccc(C(=O)OCC)cc2)[O]1` (stereo not given) was tested, and the survivor count (T/C endpoint: mean survival time, dose: 6.25 mg/kg/injection, schedule: Q04DX002 (ip), vehicle: other) was 3 of 3, the survivor count (T/C endpoint: mean survival time, dose: 100.0 mg/kg/injection, schedule: Q04DX002 (ip), vehicle: other) was 0 of 3 and the survivor count (T/C endpoint: mean survival time, dose: 200.0 mg/kg/injection, schedule: Q04DX002 (ip), vehicle: other) was 0 of 3. The survivor count (T/C endpoint: mean survival time, dose: 400.0 mg/kg/injection, schedule: Q04DX002 (ip), vehicle: other) was 0 of 3.
In the case of `C/C=C\c1ccc(OCCOC(=O)Nc2cc(Cl)c(OC)cc2OC)c(OC)c1`, the survivor count [6] is reported as 3 of 3.
`CCCCCCCCCCCCCCCC[N+]1([O-])CCOCC1` was tested, and the survivor count (T/C endpoint: mean survival time, dose: 100.0 mg/kg/injection, schedule: Q01DX009 (ip), vehicle: saline) was 0 of 6, the survivor count [9] was 0 of 6 and the survivor count [10] was 0 of 6.
In the case of `COc1cc2c(C(=O)O)cc(-c3ccc(Cl)cc3)nc2cc1Cl`, the survivor count (T/C endpoint: mean survival time, dose: 200.0 mg/kg/injection, schedule: Q01DX001 (ip), vehicle: saline) is reported as 2 of 6 and the survivor count [7] is reported as 0 of 6.
`C=C(Cl)CSCC` was tested, and the survivor count (T/C endpoint: mean survival time, dose: 100.0 mg/kg/injection, schedule: Q01DX009 (ip), vehicle: acetone) was 0 of 6.
With `Cc1ccccc1C1(O)CCCCC1` the survivor count [3] was 3 of 6.
In the case of `CCOC1=NC(C)(C)CC(C)O1` (stereo not given), the survivor count (T/C endpoint: mean survival time, dose: 200.0 mg/kg/injection, schedule: Q04DX003 (ip), vehicle: saline) is reported as 1 of 6 and the survivor count (T/C endpoint: mean survival time, dose: 400.0 mg/kg/injection, schedule: Q04DX003 (ip), vehicle: saline) is reported as 0 of 6.
`C[n+]1c(/C=C/c2ccccc2Cl)ccc2ccccc21` was tested, and the survivor count [1] was 3 of 6 and the survivor count [2] was 3 of 6.
With `CC(=O)Nc1ccc(/C=N\NC(=O)CNC(=O)Nc2ccc(F)cc2)cc1` the survivor count [6] was 3 of 3.
In the case of `NC(=O)c1ncc[nH]c1=O`, the survivor count [3] is reported as 3 of 6.
For `Oc1ccc(CCl)c2cccnc12`, the survivor count (T/C endpoint: median survival time, dose: 200.0 mg/kg/injection, schedule: Q01DX009 (ip), vehicle: saline) was 2 of 6.
For `CCC(CO)C(C)C` (stereo not given), the survivor count [3] was 0 of 6.
With `O=C(C=C(C(F)(F)F)C(F)(F)F)c1cccc(C(F)(F)F)c1` the survivor count [1] was 5 of 6.
For `O=C(O)C(=O)C(O)C(O)C(O)CO.O=C(O)C(=O)C(O)C(O)C(O)CO.[NH-]C1CCCCC1[NH-].[Pt+2]` (stereo not given), the T/C (T/C endpoint: median survival time, dose: 12.5 mg/kg/injection, schedule: Q04DX003 (ip), vehicle: saline) was 128 % of control, the T/C (T/C endpoint: median survival time, dose: 25.0 mg/kg/injection, schedule: Q04DX003 (ip), vehicle: saline) was 137 and 138 % of control and the survivor count (T/C endpoint: median survival time, dose: 200.0 mg/kg/injection, schedule: Q04DX003 (ip), vehicle: saline) was 5 of 6.
`CCCNC(C)(C)C(SS)c1ccc(C(F)(F)F)cc1` (stereo not given) was tested, and the survivor count (T/C endpoint: mean survival time, dose: 100.0 mg/kg/injection, schedule: Q04DX003 (ip), vehicle: other) was 6 of 6.
With `NOCc1cc(Cl)sc1Cl` the survivor count [3] was 1 of 6.
For `CC(C(=O)c1ccccc1)C(c1ccccc1)N1CCCCC1` (stereo not given), the survivor count (T/C endpoint: mean survival time, dose: 200.0 mg/kg/injection, schedule: Q01DX001 (ip), vehicle: saline with Tween-80) was 6 of 6.
With `O=C1C(=O)C(Cl)=C(Cl)C(Cl)=C1Cl` the survivor count [5] was 2 of 6, the survivor count (T/C endpoint: mean survival time, dose: 100.0 mg/kg/injection, schedule: Q04DX003 (ip), vehicle: Klucel (hydroxypropylcellulose) (HPC)) was 3 of 6 and the survivor count (T/C endpoint: mean survival time, dose: 200.0 mg/kg/injection, schedule: Q04DX003 (ip), vehicle: Klucel (hydroxypropylcellulose) (HPC)) was 0 of 6. For the same compound, the survivor count (T/C endpoint: mean survival time, dose: 400.0 mg/kg/injection, schedule: Q04DX003 (ip), vehicle: Klucel (hydroxypropylcellulose) (HPC)) was 0 of 6.
With `C=C(C)C1CNC(C(=O)O)C1CC(=O)O` (stereo not given) the survivor count [1] was 0 of 6, the survivor count [2] was 0 of 6 and the survivor count [3] was 0 of 6.
For `Cn1cc(C2NC(=O)c3ccccc3N2)c2ccccc21` (stereo not given), the T/C (T/C endpoint: median survival time, dose: 200.0 mg/kg/injection, schedule: Q01DX009 (ip), vehicle: Klucel (hydroxypropylcellulose) (HPC)) was 146 % of control and the survivor count (T/C endpoint: median survival time, dose: 400.0 mg/kg/injection, schedule: Q01DX009 (ip), vehicle: Klucel (hydroxypropylcellulose) (HPC)) was 3 of 6.
For `CCOC(=O)Oc1c(OC)cc(C(=O)O[C@@H]2C[C@@H]3CN4CCc5c([nH]c6cc(OC)ccc56)[C@H]4C[C@@H]3[C@H](C(=O)OC)[C@H]2OC)cc1OC`, the survivor count [5] was 5 of 6, the survivor count [2] was 4 of 6 and the survivor count [3] was 3 of 6.
`CC(C)c1ccc(C2CCCCC2O)cc1` (stereo not given) was tested, and the survivor count [4] was 6 of 6.
`CN(N=O)C(=O)NCC1OC(OC2(CO)OC(CNC(=O)N(C)N=O)C(O)C2O)C(O)C(O)C1O` (stereo not given) was tested, and the T/C [9] was 125 and 129 % of control, the T/C (T/C endpoint: mean survival time, dose: 300.0 mg/kg/injection, schedule: Q01DX009 (ip), vehicle: saline) was 137 % of control and the T/C [10] was 148 % of control.
`NC(=O)C[P+](c1ccccc1)(c1ccccc1)c1ccccc1` was tested, and the survivor count [2] was 0 of 3 and the survivor count [3] was 0 of 3.
`CCC(/C=C/C(C)C1CCC2C3CC=C4CC(O)CCC4(C)C3CCC12C)C(C)C` (stereo not given) (tested in a mixture with another compound) was tested, and the survivor count (T/C endpoint: mean survival time, dose: 100.0 mg/kg/injection, schedule: Q01DX009 (ip), vehicle: other) was 3 of 6 and the survivor count [4] was 1 of 6.
